Assay results taken from US20210186934A1, “COMPOSITIONS AND USES THEREOF” (LIVERPOOL JOHN MOORES UNIVERSITY, priority 2018, published 2021).
Some results were stated once for a whole list of compounds, not compound by compound. For at least one compound, name, drawing or mass did not settle the structure.

Tested on: miR-184
Experiment: Inhibition of SOCE: effect on Ca2+-dependent miR-184 expression in HPEK
Type: cell-based, human
Settings: 1.5 mM Ca2+ 5 d, 1 μM Gd3+, BTP2 or CsA, 100 nM siRNA

For `[Cl][Gd]([Cl])[Cl]` [Gd^3+, Gadolinium(III) chloride], the “reduction of Ca2+-induced miR-184 expression” value was at least 70%.
